Assay results taken from article PMC7883825.
These are yes or no findings as the source states them, for the method shown. Binding seen in cells or lysates may run through a third protein. Here binding means that the protein was enriched with, or labelled near, the bait; the list need not be complete. A no says only that the protein was not detected with the bait.

Target: FLAG-tagged RING finger protein 219 (RNF219)
Test: affinity purification with mass spectrometry; FLAG affinity purification of FLAG-RNF219 from nuclear and cytoplasmic S100 extracts of the HEK-293 FIT stable line, doxycycline 48 h, with Benzonase; SDS-PAGE, silver staining, mass spectrometry

binding: no binding
B1: CNOT4 (protein, UniProt O95628 1-575)
chain: MSRSPDAKEDPVECPLCMEPLEIDDINFFPCTCGYQICRFCWHRIRTDENGLCPACRKPYPEDPAVYKPLSQEELQRIKNEKKQKQNERKQKISENRKHLASVRVVQKNLVFVVGLSQRLADPEVLKRPEYFGKFGKIHKVVINNSTSYAGSQGPSASAYVTYIRSEDALRAIQCVNNVVVDGRTLKASLGTTKYCSYFLKNMQCPKPDCMYLHELGDEAASFTKEEMQAGKHQEYEQKLLQELYKLNPNFLQLSTGSVDKNKNKVTPLQRYDTPIDKPSDSLSIGNGDNSQQISNSDTPSPPPGLSKSNPVIPISSSNHSARSPFEGAVTESQSLFSDNFRHPNPIPSGLPPFPSSPQTSSDWPTAPEPQSLFTSETIPVSSSTDWQAAFGFGSSKQPEDDLGFDPFDVTRKALADLIEKELSVQDQPSLSPTSLQNSSSHTTTAKGPGSGFLHPAAATNANSLNSTFSVLPQRFPQFQQHRAVYNSFSFPGQAARYPWMAFPRNSIMHLNHTANPTSNSNFLDLNLPPQHNTGLGGIPVAGEEEVKVSTMPLSTSSHSLQQGQQPTSLHTTVA
